Measurements as given in patent publication US20250152627A1, “COMPOSITIONS AND METHODS FOR ENHANCING IMMUNE CELL FUNCTION USING MODIFIED CELLS WITH GLYCOCALYX EDITING ENZYMES” (Cornell University, priority 2021, published 2025).
These are yes or no findings as the source states them, for the method shown. Some entries that bind do so weakly or less than the wild type.

Sequences of proteins named here, by UniProt entry; tags and fusion partners are left off. A change or cut given only in a name is not applied to a line headed by its entry. Residues count along the entry.
UniProt P15941, residues 24-1189: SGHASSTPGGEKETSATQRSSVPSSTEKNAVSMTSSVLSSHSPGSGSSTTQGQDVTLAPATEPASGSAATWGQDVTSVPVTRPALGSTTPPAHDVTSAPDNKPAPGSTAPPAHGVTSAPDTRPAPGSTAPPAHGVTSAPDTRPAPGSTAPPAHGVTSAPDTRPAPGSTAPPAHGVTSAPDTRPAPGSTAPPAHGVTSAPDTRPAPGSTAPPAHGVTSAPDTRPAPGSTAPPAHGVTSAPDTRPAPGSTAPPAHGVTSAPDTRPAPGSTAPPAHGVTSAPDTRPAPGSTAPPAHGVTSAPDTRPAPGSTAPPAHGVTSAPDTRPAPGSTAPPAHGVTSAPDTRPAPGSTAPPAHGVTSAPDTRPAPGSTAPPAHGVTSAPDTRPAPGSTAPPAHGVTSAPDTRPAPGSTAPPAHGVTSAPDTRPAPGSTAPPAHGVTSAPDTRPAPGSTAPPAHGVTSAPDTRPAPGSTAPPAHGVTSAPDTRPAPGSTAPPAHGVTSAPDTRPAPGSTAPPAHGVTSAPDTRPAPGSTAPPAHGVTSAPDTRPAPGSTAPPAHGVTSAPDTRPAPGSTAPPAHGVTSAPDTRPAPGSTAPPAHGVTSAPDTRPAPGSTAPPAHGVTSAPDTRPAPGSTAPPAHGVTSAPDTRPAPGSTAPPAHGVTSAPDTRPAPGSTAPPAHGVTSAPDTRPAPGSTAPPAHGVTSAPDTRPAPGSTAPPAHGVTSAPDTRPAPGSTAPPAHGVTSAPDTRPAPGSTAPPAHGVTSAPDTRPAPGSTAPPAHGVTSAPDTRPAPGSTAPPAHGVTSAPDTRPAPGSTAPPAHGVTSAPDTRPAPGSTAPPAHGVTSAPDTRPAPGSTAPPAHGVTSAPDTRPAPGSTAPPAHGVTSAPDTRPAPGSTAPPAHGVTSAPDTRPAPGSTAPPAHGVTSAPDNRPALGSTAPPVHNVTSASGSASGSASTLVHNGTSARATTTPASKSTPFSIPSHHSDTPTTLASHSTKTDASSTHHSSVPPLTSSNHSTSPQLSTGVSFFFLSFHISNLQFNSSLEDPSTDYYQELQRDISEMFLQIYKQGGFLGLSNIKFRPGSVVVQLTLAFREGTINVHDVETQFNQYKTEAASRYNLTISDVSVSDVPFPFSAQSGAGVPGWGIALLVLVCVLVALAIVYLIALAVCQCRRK
UniProt P09382, residues 2-135: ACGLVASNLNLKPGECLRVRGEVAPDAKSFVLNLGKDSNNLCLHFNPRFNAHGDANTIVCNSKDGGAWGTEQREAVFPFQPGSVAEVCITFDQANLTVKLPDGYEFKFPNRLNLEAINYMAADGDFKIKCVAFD

Biological target: Muc1-GFP with 42 tandem repeats (Muc1 mOxGFP ΔCT, about 42 native tandem repeats) on 1E7 cells (UniProt P15941)
Assay: fluorescence quantification of recombinant galectin on 1E7 cells and glycoengineered progeny (glycan-mediated)

recombinant human galectin-1 (from UniProt P09382 2-135) (ligand)
binding: binds
